In article PMC12835413, “Allosteric zinc inhibition and interdomain regulation govern the catalytic mechanism of the E3-independent ubiquitin-conjugating enzyme hUBE2O” (The Journal of Biological Chemistry, 2025):
Changes are numbered by the printed parent chain. Names and notes keep the numbering of the source. No constants are given. Whether binding was seen depends on the method and setting. Binding seen in cells or lysates may run through a third protein. Some entries that bind do so weakly or less than the wild type. One block for each binder: values may come before it.

Legend:
[1] = biological target: hUBE2O H939A mutant (human) (UniProt Q9C0C9); assay: co-IP; lysates of transfected cells (0.5% NP40, 150 mM NaCl, 50 mM Tris pH 8.0, 1 mM EDTA, 10% glycerol), anti-Flag M2 affinity gel 90 min at 4 °C, 3 washes, immunoblotting
[2] = biological target: hUBE2O H1130A mutant (human) (UniProt Q9C0C9); assay: as above

binding [1]: binds
B1: hUBE2O H939A mutant (enzyme, UniProt Q9C0C9 1-1292)
chain: MADPAAPTPAAPAPAQAPAPAPEAVPAPAAAPVPAPAPASDSASGPSSDSGPEAGSQRLLFSHDLVSGRYRGSVHFGLVRLIHGEDSDSEGEEEGRGSSGCSEAGGAGHEEGRASPLRRGYVRVQWYPEGVKQHVKETKLKLEDRSVVPRDVVRHMRSTDSQCGTVIDVNIDCAVKLIGTNCIIYPVNSKDLQHIWPFMYGDYIAYDCWLGKVYDLKNQIILKLSNGARCSMNTEDGAKLYDVCPHVSDSGLFFDDSYGFYPGQVLIGPAKIFSSVQWLSGVKPVLSTKSKFRVVVEEVQVVELKVTWITKSFCPGGTDSVSPPPSVITQENLGRVKRLGCFDHAQRQLGERCLYVFPAKVEPAKIAWECPEKNCAQGEGSMAKKVKRLLKKQVVRIMSCSPDTQCSRDHSMEDPDKKGESKTKSEAESASPEETPDGSASPVEMQDEGAEEPHEAGEQLPPFLLKEGRDDRLHSAEQDADDEAADDTDDTSSVTSSASSTTSSQSGSGTSRKKSIPLSIKNLKRKHKRKKNKITRDFKPGDRVAVEVVTTMTSADVMWQDGSVECNIRSNDLFPVHHLDNNEFCPGDFVVDKRVQSCPDPAVYGVVQSGDHIGRTCMVKWFKLRPSGDDVELIGEEEDVSVYDIADHPDFRFRTTDIVIRIGNTEDGAPHKEDEPSVGQVARVDVSSKVEVVWADNSKTIILPQHLYNIESEIEESDYDSVEGSTSGASSDEWEDDSDSWETDNGLVEDEHPKIEEPPIPPLEQPVAPEDKGVVISEEAATAAVQGAVAMAAPMAGLMEKAGKDGPPKSFRELKEAIKILESLKNMTVEQLLTGSPTSPTVEPEKPTREKKFLDDIKKLQENLKKTLDNVAIVEEEKMEAVPDVERKEDKPEGQSPVKAEWPSETPVLCQQCGGKPGVTFTSAKGEVFSVLEFAPSNASFKKIEFQPPEAKKFFSTVRKEMALLATSLPEGIMVKTFEDRMDLFSALIKGPTRTPYEDGLYLFDIQLPNIYPAVPPHFCYLSQCSGRLNPNLYDNGKVCVSLLGTWIGKGTERWTSKSSLLQVLISIQGLILVNEPYYNEAGFDSDRGLQEGYENSRCYNEMALIRVVQSMTQLVRRPPEVFEQEIRQHFSTGGWRLVNRIESWLETHALLEKAQALPNGVPKASSSPEPPAVAELSDSGQQEPEDGGPAPGEASQGSDSEGGAQGLASASRDHTDQTSETAPDASVPPSVKPKKRRKSYRSFLPEKSGYPDIGFPLFPLSKGFIKSIRGVLTQFRAALLEAGMPECTEDK

binding [2]: binds
B2: hUBE2O H1130A mutant (enzyme, UniProt Q9C0C9 1-1292)
chain: B1 chain with A939H, H1130A
